Results as given in patent publication US20070264229A1, “Peptides for Treatment of Autoimmune Disease” (priority 2004, published 2007).
Part of at least one peptide drawing is inferred or uncertain, most often the ends. Some compounds share one wording; it may come from a single statement.

System: EAE in SJL/J mice
Details: peptide-treated groups

| Structure (SMILES) | mortalities |
| --- | --- |
| C[C@H](NC(=O)[C@@H]1CCCN1C(=O)[C@H](C)NC(=O)[C@H](C)NC(=O)[C@H](C)NC(=O)[C@H](C)NC(=O)[C@H](CCCCN)NC(=O)[C@H](Cc1ccc(O)cc1)NC(=O)[C@H](C)NC(=O)[C@H](CCC(=O)O)NC(=O)[C@H](Cc1ccc(O)cc1)NC(=O)[C@H](CCCCN)NC(=O)[C@@H]1CCCN1C(=O)[C@H](CCCCN)NC(=O)[C@@H](N)CCC(=O)O)C(=O)O [J2] | No mortalities were observed |
| C[C@H](NC(=O)[C@@H]1CCCN1C(=O)[C@H](C)NC(=O)[C@H](C)NC(=O)[C@H](C)NC(=O)[C@H](C)NC(=O)[C@H](CCCCN)NC(=O)[C@H](Cc1ccc(O)cc1)NC(=O)[C@H](C)NC(=O)[C@H](CCC(=O)O)NC(=O)[C@H](Cc1ccccc1)NC(=O)[C@H](CCCCN)NC(=O)[C@@H]1CCCN1C(=O)[C@H](CCCCN)NC(=O)[C@@H](N)CCC(=O)O)C(=O)O [J3] | No mortalities were observed |
| CC(C)[C@H](NC(=O)[C@H](CCCCN)NC(=O)[C@@H]1CCCN1C(=O)[C@H](CCCCN)NC(=O)[C@@H](N)CCC(=O)O)C(=O)N[C@@H](CCC(=O)O)C(=O)N[C@@H](C)C(=O)N[C@@H](Cc1ccc(O)cc1)C(=O)N[C@@H](CCCCN)C(=O)N[C@@H](C)C(=O)N[C@@H](C)C(=O)N[C@@H](C)C(=O)N[C@@H](C)C(=O)N1CCC[C@H]1C(=O)N[C@@H](C)C(=O)O [J5] | No mortalities were observed |
